{"source": "PubChem BioAssay AID485298", "about": "(National Center for Advancing Translational Sciences (NCATS), 2010)", "note": "Out of some 320,000 compounds screened, about 740 (0.23%) were called active. Inconclusive results, whose numbers are uncertain, are shown with a selection of clear calls. Calls follow the shape of the dose curve; as a rule, active = well fitted activation curve with a large enough effect; inconclusive = small, poorly fitted or top-dose-only effect; inactive = no such curve, though single readings can be large or run the other way. A potency beside an inconclusive call is a rough fit, not a confirmed value. Potency is read from the fitted curve at half-maximal effect."}
{"test": "qHTS Assay for Small Molecule Inhibitors of Mitochondrial Division or Activators of Mitochondrial Fusion; also: nearly all actives have a fitted effect of over 45% in size;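 as to growth rescue (activation): temperature-sensitive fusion mutants such as fzo1-1 at 37 °C on non-fermentable ethanol glycerol medium; % of control where 0% means no effect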", "details": "S. cerevisiae fusion-defective mutant growth rescue, CellTiterGlo 48 h; growth rescue (activation): at 46.1 µM (top of the series) unless noted", "summary_of_the_method": "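Read-out: ATP-based luminescence (CellTiterGlo, 10 min ambient) reporting growth of fusion-defective ts yeast after 48 hours at 37C on glycerol/ethanol YPEG medium in the presence of compound.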"}
{"smiles": "O=C(NC(=S)Nc1nc2ccccc2s1)c1ccco1", "growth rescue (activation)": "inactive: -0.846%"}
{"smiles": "Cc1ccc(C)c(Nc2cc(C)nc(-c3ccccc3O)n2)c1", "Potency": "inconclusive: 35.5 µM [activator, single point]"}
{"smiles": "Cc1ccc(C2NNC(=O)C2NC(=O)c2ccccc2)cc1", "note": "(stereo unspecified)", "growth rescue (activation)": "inactive: -2.43%"}
{"smiles": "CCN(CC)C(=O)c1cn(CCC#N)nc1-c1ccc(F)cc1", "Potency": "inconclusive: 31.6 µM [activator, single point]"}
{"smiles": "COC(=O)[C@@]12CCCCN1[C@H](c1ccc(-c3cccc(Cl)c3)c(OC)c1)[C@H]1C(=O)N(C)C(=O)[C@H]12", "Potency": "inconclusive: 20 µM [activator, single point]"}
{"smiles": "Cc1cc(C)nc(NC(=NCCc2c[nH]c3ccccc23)NC(=O)Nc2ccccc2)n1", "Potency": "inconclusive: 7.94 µM [activator, partial curve]"}
{"smiles": "Cc1cc([N+](=O)[O-])ccc1NC(=S)NC1CCCC1", "growth rescue (activation)": "inactive: 5.49%"}
{"smiles": "COc1ccc(C(=O)COc2ccccc2C(=O)Nc2ccccc2)cc1", "Potency": "inconclusive: 3.98 µM [activator, full curve, poor fit]"}
{"smiles": "O=C(CN1CCCN(S(=O)(=O)c2ccc(F)cc2)CC1)Nc1c(Cl)cccc1Cl", "Potency": "inconclusive: 11.2 µM [activator, partial curve]"}
{"smiles": "O=S(=O)(NCC(c1ccco1)N1CCc2ccccc21)c1ccccc1", "note": "(stereo unspecified)", "Potency": "inconclusive: 35.5 µM [activator, single point]"}
{"smiles": "CC(C)CNC(=O)NC1C(NC(=O)NCC(C)C)N(C)C(=O)N1C", "note": "(stereo unspecified)", "growth rescue (activation)": "inactive: -0.107%"}
{"smiles": "COc1ccccc1NC(=O)C(C)OC(=O)c1cc2ccccc2[nH]1", "note": "(stereo unspecified)", "Potency": "inconclusive: 17.8 µM [activator, single point]"}
{"smiles": "O=C(O)CN1C(=O)/C(=C\\c2cc(Br)ccc2OCc2ccc(Cl)cc2Cl)SC1=S", "Potency": "inconclusive: 3.98 µM [activator, single point]"}
{"smiles": "O=C(NNc1nc(-c2ccccc2)cs1)c1ccccc1", "growth rescue (activation)": "inactive: -7.32%"}
{"smiles": "Clc1ccccc1CN(Cc1ccccc1)c1ncnc2nc[nH]c12", "Potency": "inconclusive: 12.6 µM [activator, partial curve]"}
{"smiles": "O=C(N/N=C/c1cn(-c2cccs2)nc1-c1ccccc1)c1ccccc1Cl", "Potency": "active: 17.8 µM"}
{"smiles": "Cc1cccc(C(=O)Nc2sc3c(c2C(=O)O)CCCC3)c1", "Potency": "inconclusive: 12.6 µM [activator, partial curve]"}
{"smiles": "CCCc1ccc2oc(C(=O)N3CCC(O)CC3)c(C)c2c1", "Potency": "inconclusive: 35.5 µM [activator, single point]"}
{"smiles": "CCCNC(=O)CCn1nc(-c2ccc(C)cc2)c2ccccc2c1=O", "Potency": "inconclusive: 14.1 µM [activator, partial curve]"}
{"smiles": "C=CCSc1nc2ccsc2c(=O)n1-c1cccnc1", "Potency": "inconclusive: 22.4 µM [activator, single point]"}
{"smiles": "Cc1cccc(NC(=S)NNC(=O)c2csc(C(C)C)c2)c1", "Potency": "inconclusive: 35.5 µM [activator, single point]"}
{"smiles": "CCCCCCCCCC[n+]1cccc2c3ccccc3ccc21", "growth rescue (activation)": "inactive: 2.01% [at 9.22 µM]"}
{"smiles": "CC(C)n1ncc2c(C(=O)Nc3cccc(C#N)c3)cc(C3CC3)nc21", "Potency": "active: 15.8 µM"}
{"smiles": "CCCc1ccc2oc(C(=O)N(C)Cc3ccn[nH]3)c(C)c2c1", "Potency": "inconclusive: 11.2 µM [activator, partial curve]"}
{"smiles": "Cn1ccnc1SCc1ccc([N+](=O)[O-])cc1", "growth rescue (activation)": "inactive: 0.392%"}
{"smiles": "Cc1sc2nc(SCC(=O)Nc3ccc(S(=O)(=O)NCCCC(=O)O)cc3)[nH]c(=O)c2c1C", "Potency": "inconclusive: 25.1 µM [activator, single point]"}
{"smiles": "Cc1nc2cc(C(=O)NCc3ccc4c(c3)OCO4)ccc2n1-c1ccc(Br)cc1", "Potency": "inconclusive: 10 µM [activator, partial curve]"}
{"smiles": "COc1ccccc1OCc1cc(C(=O)N2CC3C[C@@H]4CC2C[C@H](C3)C4)no1", "Potency": "inconclusive: 22.4 µM [activator, partial curve]"}
{"smiles": "CCn1c(N2CCC(Cc3ccccc3)CC2)nc2c1c(=O)[nH]c(=O)n2C", "Potency": "inconclusive: 15.8 µM [activator, partial curve]"}
{"smiles": "O=C(CNC(=S)NC(=O)c1ccccc1Br)c1ccccc1", "growth rescue (activation)": "inactive: 8.79%"}
{"smiles": "Cc1ccc(OCc2cc(C(=O)N(C)CCc3ccccn3)no2)cc1C", "Potency": "inconclusive: 0.708 µM [activator, full curve, poor fit]"}
{"smiles": "Cn1c(=O)n(CCc2ccccc2)c(=O)c2c1ncn2Cc1ccccc1", "Potency": "inconclusive: 12.6 µM [activator, single point]"}
{"smiles": "Cc1ccc(N2C(=O)c3ccccc3NC2C(C)Cc2ccc3c(c2)OCO3)cc1", "note": "(stereo unspecified)", "Potency": "inconclusive: 12.6 µM [activator, partial curve]"}
{"smiles": "Cc1ccc(S(=O)(=O)N2CCCCC2CCNC(=O)C(=O)NCc2ccco2)cc1", "note": "(stereo unspecified)", "growth rescue (activation)": "inactive: 19%"}
{"smiles": "O=C(CCCSc1nc2ccccc2s1)NCc1ccc2c(c1)OCO2", "Potency": "inconclusive: 31.6 µM [activator, single point]"}
{"smiles": "COc1ccc(CN(C(=O)CSc2nnc(-c3c[nH]c4ccccc34)o2)c2ccc(F)cc2)cc1OC", "Potency": "inconclusive: 12.6 µM [activator, partial curve]"}
{"smiles": "O=C(C1CC1)N(CCN(C(=O)C1CC1)c1ccccc1)c1ccccc1", "Potency": "inconclusive: 39.8 µM [activator, single point]"}
{"smiles": "Cc1ccc(-c2nc(Nc3cccc(O)c3)c3ccccc3n2)cc1", "Potency": "inconclusive: 17.8 µM [activator, single point]"}
{"smiles": "COc1ccc(CNC(=S)Nc2ccccc2-c2ccccc2)cc1", "growth rescue (activation)": "inactive: 7.18%"}
{"smiles": "Cc1cc(F)ccc1S(=O)(=O)Nc1ccccc1C(=O)N1CCCC1", "growth rescue (activation)": "inactive: 1.9%"}
{"smiles": "CCCCn1c(=O)[nH]c(=O)c2c1nc(-c1ccncc1)n2CCOC", "growth rescue (activation)": "inactive: -2.76%"}
{"smiles": "CCCCN(Cc1cccs1)S(=O)(=O)c1ccc(-c2ccc(=O)[nH]n2)s1", "Potency": "inconclusive: 8.91 µM [activator, partial curve]"}
{"smiles": "COc1cccc(NC(=S)N2c3ccccc3CC2C)c1", "note": "(stereo unspecified)", "growth rescue (activation)": "inactive: -7.91%"}
{"smiles": "CCN1C(=O)[C@@H]2[C@H](C1=O)[C@@H]1C(=O)Nc3ccccc3C(=O)N1[C@@H]2c1ccc(OC)cc1", "growth rescue (activation)": "inactive: -5.93%"}
{"smiles": "Cc1ccc(S(=O)(=O)CCc2nc3ccccc3n2CCC#N)cc1", "growth rescue (activation)": "inactive: -8.63%"}
{"smiles": "O=C(N/N=C/c1ccccc1Cl)c1ccc(F)cc1", "growth rescue (activation)": "inactive: -4.2%"}
{"smiles": "CC(Sc1nnnn1-c1ccccc1)C(=O)Nc1ccccc1-c1ccccc1", "note": "(stereo unspecified)", "Potency": "inconclusive: 12.6 µM [activator, partial curve]"}
{"smiles": "Cc1cccc(NC(=O)COc2ccc(Br)cc2/C=N/O)c1", "Potency": "inconclusive: 10 µM [activator, partial curve]"}
{"smiles": "CCCC(=O)Nc1cccc(NC(=S)NC(=O)C(C)Oc2ccc(Cl)cc2Cl)c1", "note": "(stereo unspecified)", "Potency": "inconclusive: 35.5 µM [activator, single point]"}
{"smiles": "Cc1cc(C)c(S(=O)(=O)NCCn2c(C)cc3ccccc32)c(C)c1", "growth rescue (activation)": "inactive: 11.4%"}
{"smiles": "O=C(c1cccs1)N(Cc1cc2ccccc2[nH]c1=O)CC1CCCO1", "note": "(stereo unspecified)", "Potency": "inconclusive: 0.501 µM [activator, partial curve, poor fit]"}
{"smiles": "N/C(=N\\OC(=O)c1ccccc1Cl)c1ccc(Cl)cc1", "Potency": "inconclusive: 20 µM [activator, single point]"}
{"smiles": "CCCN(CC1CC1)C(=S)NC(=O)c1cc(Br)ccc1Cl", "Potency": "inconclusive: 4.47 µM [activator, partial curve]"}
{"smiles": "COc1ccc(CNC(=O)c2sc3nc4c(c(C(F)(F)F)c3c2N)CCC4)cc1", "Potency": "inconclusive: 31.6 µM [activator, single point]"}
{"smiles": "O=[N+]([O-])c1cc(S(=O)(=O)Nc2ccccc2)ccc1NCc1ccccc1", "Potency": "inconclusive: 31.6 µM [activator, single point]"}
{"smiles": "COc1ccc(Br)cc1/C=C/C(=O)Nc1ccc2ccccc2c1", "Potency": "inconclusive: 11.2 µM [activator, partial curve]"}
{"smiles": "Cc1nn(-c2ccc3ccccc3c2)c(=O)c2ccccc12", "Potency": "inconclusive: 10 µM [activator, partial curve]"}
{"smiles": "Cc1c(C(=O)Nc2ccccn2)oc2c(Cl)cccc12", "growth rescue (activation)": "inactive: 10.3%"}
{"smiles": "Cc1onc(-c2ccccc2Cl)c1C(=O)NCc1ccco1", "growth rescue (activation)": "inactive: 1.43%"}
{"smiles": "CC12CCC(C(=O)N3CCc4ccccc43)(CC1=O)C2(C)C", "note": "(stereo unspecified)", "Potency": "active: 14.1 µM"}
{"smiles": "COc1ccccc1CNC(=O)Cn1cccc1C(=O)c1ccccc1C", "Potency": "inconclusive: 12.6 µM [activator, partial curve]"}
{"smiles": "O=C(CCc1cccc(Cl)c1)N1CCCC(Nc2ccccc2)C1", "note": "(stereo unspecified)", "Potency": "inconclusive: 12.6 µM [activator, partial curve]"}
{"smiles": "CC(Sc1nc2cc([N+](=O)[O-])ccc2n1-c1cccc(C(F)(F)F)c1)C(=O)NC(N)=O", "note": "(stereo unspecified)", "growth rescue (activation)": "inactive: -6.69%"}
{"smiles": "OCCNc1ncnc2c1sc1nc(N3CCOCC3)c3c(c12)CCC3", "Potency": "inconclusive: 35.5 µM [activator, single point]"}
{"smiles": "O=C(Nc1nc(-c2ccccc2)cs1)NC1CCCCC1", "Potency": "inconclusive: 8.91 µM [activator, partial curve]"}
{"smiles": "N#Cc1cc2c(nc1SCc1cccnc1)CCCC2", "Potency": "inconclusive: 12.6 µM [activator, partial curve]"}
{"smiles": "CN1CCN(S(=O)(=O)c2ccc(Sc3nnnn3-c3ccccc3)c([N+](=O)[O-])c2)CC1", "growth rescue (activation)": "inactive: -3.55%"}
{"smiles": "COc1ccc(N(CC(=O)N2CCc3ccccc3C2)S(=O)(=O)c2ccccc2)cc1", "Potency": "inconclusive: 20 µM [activator, single point]"}
{"smiles": "O=C(NCc1ccco1)c1cc2sccc2n1Cc1ccccc1", "Potency": "inconclusive: 31.6 µM [activator, single point]"}
{"smiles": "O=c1[nH]c(N/N=C\\c2ccc3c(c2)OCO3)nc2ccccc12", "growth rescue (activation)": "inactive: -6.14%"}
{"smiles": "Cc1nn(-c2ccccc2)c(/N=C/c2ccccc2O)c1-c1ccccc1", "growth rescue (activation)": "inactive: 0.669%"}
